Data source: PubChem BioAssay AID1259425 (University of Nebraska Medical Center, 2018)
Purpose: 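Find knockdowns that reproduce the gene expression pattern seen when KSR1 is lost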 (primary screen). System: HCT116 human colon cancer cells. Knock-down reagent: siRNA pool against human genes, 50 nM siRNA. Measurement: 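mRNA of six signature genes measured together by branched-DNA assay after 50 nM siRNA pool, blank removed, divided by geometric mean of two housekeeping genes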. Scale: BNIP3L mRNA: higher = more BNIP3L transcript after knockdown.
Shown is one part, drawn at random, of about 14,000 deposited reagents. Further read-outs or replicates are left out here. The record does not give: the time to read-out.

target gene	BNIP3L mRNA, set 1
MPHOSPH10	0.107
LRRTM4	0.314
TSPAN13	0.11
PDPR	0.276
RCC1	0.14
KRTAP1-1	0.108
NBR2	0.191
UBXN6	0.117
SRGAP3	0.0916
NT5C2	0.112
FBN3	0.104
AMD1	0.106
DVL2	0.0381
TNFSF12	0.136
ZNF607	0.11
GALR2	0.189
ARSG	0.39
SLC2A3	0.101
EFNA5	0.0949
AURKA	0.202
BNIP3	0.0413
LUZP4	0.099
ZFTRAF1	0.128
NPSR1-AS1	0.114
ANAPC10	0.0682
ELN	0.184
CTAGE1	0.082
SERINC3	0.0779
HTRA2	0.102
EDF1	0.234
ZNF593	0.171
CTSE	0.0128
SSTR5	0.0998
LMBR1	0.142
TMEM209	0.118
GRAP2	0.0648
SGPP1	0.0918
CUZD1	0.183
FOXD1	0.146
ZC3H8	0.107
TTC27	0.138
CMKLR1	0.149
MMP14	0.153
GFRA3	0.187
ITPKC	0.133
CPM	0.114
NCKAP1L	0.068
CFLAR	0.171
RRP1	0.161
FGA	0.0761
ZNF22	0.089
TENM3	0.0971
CKMT2	0.126
H4C9	0.286
NXT1	0.133
CHGB	0.0518
CHUK	0.0842
RELB	0.063
NREP	0.0838
LINC01558	0.128
NDUFV3	0.146
GBX2	0.19
CYLD	0.0495

Reformatted: 7 of the entries above
GFRA3 → BNIP3L mRNA, set 1: 0.187
ITPKC → BNIP3L mRNA, set 1: 0.133
CPM → BNIP3L mRNA, set 1: 0.114
NCKAP1L → BNIP3L mRNA, set 1: 0.068
CFLAR → BNIP3L mRNA, set 1: 0.171
RRP1 → BNIP3L mRNA, set 1: 0.161
FGA → BNIP3L mRNA, set 1: 0.0761
